Results from PubChem BioAssay AID1919017 (Molecular Pharmacology Branch, DTP, NCI, 2023).
Several values for one entry are separate records, joined by “and”; a condition that tells them apart may be missing. Rule for the calls: active = viability on the fitted dose curve at most 10% of control; inactive = the rest. Equal entries are not always repeated. The source gives many values for each of these; only a part stands here.

Tested on: SW1271 complex spheroids with HUVEC/MSC, growth, % test/control
Assay: Anticancer human tumor SW1271 cell line growth inhibition [AhR];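 note: spheroids exposed to agents for 7 days before readout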
Details: active compounds read low
From the text: Multicellular complex tumor spheroid response to aryl hydrocarbon receptor antagonists in combination with a variety of drugs and investigational agents in selected tumor cell lines
The current study was undertaken to assess response to aryl hydrocarbon receptor antagonists in combination with standard-of-care drugs and investigational agents in solid tumor complex spheroid models. Complex spheroids include a stromal component modeled by human endothelial cells (HUVEC) and fibroblasts modeled by human mesenchymal stem cells (MSCs). The concentration ranges selected for each drug and investigational agent were based upon clinically achievable concentrations if the clinical Cmax of the agent was known.
Compounds. The drugs and investigational agents: BAY 2416964 (NSC825713), GNF351 (NSC835774), CH-223191 (NSC835775), CPI-455 (NSC825282), aza-TdCyd (NSC777586), decitabine (NSC127716), belinostat (NSC758774), entinostat (NSC756642), pevonedistat (NSC761192), tazemetostat (NSC777109), talazoparib (NSC765396), olaparib (NSC753686), selinexor (NSC780203), nedisertib (M3814, NSC802822), bortezomib (NSC756655), venetoclax (NSC766270), doxorubicin (NSC123127), elimusertib (BAY189344, NSC800525), ceralasertib (AZD6738, NSC777638), TAK-243 (NSC785004), alisertib (NSC759677), etoposide (NSC141540), topotecan (NSC609699), eribulin (NSC707389), gemcitabine (NSC613327), carboplatin (NSC241240), cisplatin (NSC119875), and SN-38 (NSC673596) were obtained from the National Cancer Institute (NCI) Developmental Therapeutics Program Chemical Repository (32). The FDA-approved anticancer drug set is available from the Developmental Therapeutics Program at https://dtp.cancer.gov/organization/dscb/obtaining/available plates.htm. […] The stock solutions were prepared in dimethyl sulfoxide (DMSO, Sigma-Aldrich, St. Louis, MO, cat. D2650), except for the platinum compounds which were prepared in saline (Quality Biological, Gaithersburg, MD, cat. 114-055-101), at 800-fold the tested concentration and stored at -70 degrees C prior to their use. All drugs and investigational agents were tested over a range starting from a high concentration at or near the clinical Cmax and decreasing in half-log increments. If the clinical Cmax for an agent had not been determined, the highest concentration tested was 10 microM (Table 1).
Cell Culture. All cells were maintained in an incubator at 37 degrees C and 5% CO2 with 95% humidity. The PDC lines were cultured according to standard operating procedures established by the NCI PDMR (https://pdmr.cancer.gov). Briefly, all PDCs were thawed and cultured in Matrigel-coated flasks prepared with a working solution of 1X Ham's F-12 nutrient mix, without supplementation (Invitrogen, Waltham, MA, cat. 11765054), 100 U/mL penicillin-streptomycin (Invitrogen, cat. 15140122), and 2.5% Matrigel (Corning Inc., Corning, NY, cat. 354248) for the first three passages. All PDCs were cultured in complete DMEM/F-12 media containing advanced DMEM/F-12 (Invitrogen, cat. 12634028), 4.9% defined fetal bovine serum, heat inactivated (HyClone Laboratories Inc., Logan, UT, cat. SH30070.03HI), 389 ng/mL hydrocortisone (Sigma-Aldrich, cat. H4001), 9.7 ng/mL human EGF recombinant protein (Invitrogen, cat. PHG0313), 23.4 microg/mL adenine (Sigma-Aldrich, cat. A2786), 97.3 U/mL penicillin-streptomycin (Invitrogen, cat. 15140122), 1.9 mM L-glutamine (Invitrogen, cat. 25030081), and 9.7 microM Y-27632 dihydrochloride (Tocris Bioscience, Bristol, United Kingdom, cat. 1254). The PDCs were cultured in complete DMEM/F12 media without 10 microM Y-27632 dihydrochloride for at least two passages prior to the screen. The established cell lines NCI-H1341 and […] were cultured in DMEM/F-12, HEPES (Invitrogen, cat. 11330032), 5% defined fetal bovine serum (HyClone Laboratories Inc., cat. SH30070.03), ITS premix universal culture supplement [insulin (5 microg/mL), transferrin (5 microg/mL), and selenious acid (5 ng/mL)] […]

Measured: viability, T/C

Cc1ccccc1N=Nc1ccc(NC(=O)c2ccnn2C)c(C)c1
inactive: compound 0.316 µM 97.5% [middle of 4 runs] | compound 1 µM 111% and 95% and 99.9% | compound 10 µM 98.9% [middle of 4 runs]

CC(CO)NC(=O)c1cc(-c2ccc(Cl)cc2)nn(-c2cnn(C)c2)c1=O (stereo not given)
inactive: compound 0.316 µM 76.1% and 68% and 99% | compound 1 µM 80.8% [middle of 4 runs] | compound 10 µM 75.6% [middle of 5 runs]

Cc1cncc(-c2nc(NCCc3c[nH]c4ccccc34)c3ncn(C(C)C)c3n2)c1
inactive: compound 0.1 µM 99.1% [middle of 4 runs] | compound 1 µM 92.5% and 91.1% and 90.6% | compound 3.16 µM 82% and 75.4% and 93.6% | compound 10 µM 49.8% [middle of 5 runs]
